From PubChem BioAssay AID248 (DTP/NCI, 2004)
The list does not hold the whole screen: it gathers tests that were run many times, whatever their T/C, doses with no T/C, and many T/C values between a quarter and a half above the control. Other doses and runs of a compound stand elsewhere. T/C is the treated group as % of the vehicle group. Some doses have a count of surviving animals in place of a T/C: the source files T/C as zero there, which appears to mark a toxic dose or a test without result, not a measured value. Some survivor counts are full or nearly so, which does not show that the dose was tolerated: survival well below the control is almost never listed, so the zero probably covers shortened survival too. Survivors were counted at the toxicity check, usually on the fifth day, unless a day is given; later deaths do not show. Schedules are NCI's codes, taken here to give the interval after Q, in days (D) or hours (H), and the number of doses after X. Some doses were run more than once; the values are given in rising order. For survival time, this PubChem deposit counts one and a half times the control or more as active, and values a quarter to a half above the control carry no call in these data; other NCI protocols may use other cut-offs.

Tested on: L1210 leukemia ip in BDF1 mice, survival T/C
Assay: NCI In Vivo Anticancer Drug Screen. Data for tumor model L1210 Leukemia (intraperitoneal) in B6D2F1 (BDF1) mice
Settings: T/C endpoint: mean survival time, higher T/C = longer survival
[1] = dose: 400.0 mg/kg/injection, schedule: Q01DX009 (ip), vehicle: Klucel (hydroxypropylcellulose) (HPC)
[2] = dose: 400.0 mg/kg/injection, schedule: Q04DX003 (ip), vehicle: saline with Tween-80
[3] = dose: 100.0 mg/kg/injection, schedule: Q01DX001 (ip), vehicle: other
[4] = dose: 150.0 mg/kg/injection, schedule: Q01DX001 (ip), vehicle: other
[5] = dose: 400.0 mg/kg/injection, schedule: Q01DX001 (ip), vehicle: Klucel (hydroxypropylcellulose) (HPC)
[6] = dose: 400.0 mg/kg/injection, schedule: Q01DX001 (ip), vehicle: saline
[7] = dose: 100.0 mg/kg/injection, schedule: Q04DX003 (ip), vehicle: saline
[8] = dose: 100.0 mg/kg/injection, schedule: Q01DX001 (ip), vehicle: saline
[9] = dose: 200.0 mg/kg/injection, schedule: Q01DX001 (ip), vehicle: saline
[10] = dose: 20.0 mg/kg/injection, schedule: Q01DX001 (ip), vehicle: other
[11] = dose: 40.0 mg/kg/injection, schedule: Q01DX001 (ip), vehicle: other
[12] = dose: 80.0 mg/kg/injection, schedule: Q01DX001 (ip), vehicle: other
[13] = dose: 200.0 mg/kg/injection, schedule: Q01DX001 (ip), vehicle: other
[14] = dose: 400.0 mg/kg/injection, schedule: Q01DX001 (ip), vehicle: other
[15] = dose: 400.0 mg/kg/injection, schedule: Q04DX003 (ip), vehicle: Klucel (hydroxypropylcellulose) (HPC)

In the case of CC(C)=CCC(=O)NCC(CCN1CCCCC1)(c1cccc2ccccc12)C(C)C (centres undefined), the survivor count (dose: 100.0 mg/kg/injection, schedule: Q01DX003 (ip), vehicle: saline with Tween-80) is reported as 0 of 6, the survivor count (dose: 200.0 mg/kg/injection, schedule: Q01DX003 (ip), vehicle: saline with Tween-80) is reported as 2 of 6 and the survivor count [1] is reported as 0 of 6.
For O=C1OC(=O)C2C3OC(C(Cl)C3Cl)C12 (centres undefined), the survivor count [1] was 2 of 6.
CCc1c(C)nc(N)[nH]c1=O was tested, and the survivor count [2] was 2 of 6.
For O=NN(CCCl)C(=O)NC1CS(=O)(=O)CS(=O)(=O)C1, the T/C (dose: 3.12 mg/kg/injection, schedule: Q01DX001 (ip), vehicle: other) was 136 % of control, the T/C [3] was 137 % of control and the survivor count [4] was 8 of 10.
In the case of Cc1cc(N=Nc2ccc([N+](=O)[O-])cc2)ccc1O, the survivor count [5] is reported as 0 of 6.
COC(=O)c1cc(C)cc(N(c2ccccc2N)S(=O)(=O)c2ccc(C)cc2)c1C was tested, and the survivor count [6] was 4 of 4.
C#CCOC(=O)C(Cl)(Cl)Cl was tested, and the survivor count (dose: 400.0 mg/kg/injection, schedule: Q04DX002 (ip), vehicle: other) was 1 of 3.
In the case of CC/C(=C/c1ccccc1)C(N)=O, the survivor count (dose: 400.0 mg/kg/injection, schedule: Q01DX001 (ip), vehicle: steroid suspending solution) is reported as 0 of 6.
With CCOC(=O)N(Cl)Cl the survivor count [7] was 0 of 6, the survivor count (dose: 200.0 mg/kg/injection, schedule: Q04DX003 (ip), vehicle: saline) was 0 of 6 and the survivor count (dose: 400.0 mg/kg/injection, schedule: Q04DX003 (ip), vehicle: saline) was 0 of 6.
With O=C(O)c1cc2ccccc2cc1O the survivor count (dose: 400.0 mg/kg/injection, schedule: Q04DX002 (ip), vehicle: gum acacia) was 0 of 3.
With C[n+]1ccccc1/C=C/c1ccc(O)c(O)c1 the survivor count (dose: 150.0 mg/kg/injection, schedule: Q01DX001 (ip), vehicle: saline) was 2 of 6.
For CC(C)CP(=O)(CC(C)C)C1CCCC1, the survivor count (dose: 400.0 mg/kg/injection, schedule: Q01DX001 (ip), vehicle: saline with Tween-80) was 1 of 6.
With N/C([Se])=N\N=C/c1cccnc1 the survivor count (dose: 100.0 mg/kg/injection, schedule: Q01DX001 (ip), vehicle: Klucel (hydroxypropylcellulose) (HPC)) was 0 of 6, the survivor count (dose: 200.0 mg/kg/injection, schedule: Q01DX001 (ip), vehicle: Klucel (hydroxypropylcellulose) (HPC)) was 0 of 6 and the survivor count [5] was 0 of 6.
For CC(Cl)CCN1CCCCC1 (centres undefined), the survivor count [8] was 0 of 4, the survivor count [9] was 0 of 4 and the survivor count [6] was 0 of 4.
With CC1(C)CSC(=S)N1CCC#N the survivor count [4] was 0 of 6 and the survivor count (dose: 300.0 mg/kg/injection, schedule: Q01DX001 (ip), vehicle: other) was 0 of 6.
In the case of CN(Cc1ccc2nc(N)nc(N)c2c1)c1ccc(C(=O)NC(CCC(=O)O)C(=O)O)cc1 (centres undefined), the T/C (dose: 0.25 mg/kg/injection, schedule: Q01DX009 (ip), vehicle: other) is reported as 141 % of control, the survivor count (dose: 3.6 mg/kg/injection, schedule: Q01DX009 (ip), vehicle: other) is reported as 6 of 6 and the T/C (dose: 4.4 mg/kg/injection, schedule: Q01DX001 (ip), vehicle: other) is reported as 125 % of control. For the same compound, the survivor count (dose: 6.0 mg/kg/injection, schedule: Q01DX009 (ip), vehicle: other) was 6 of 6, the T/C (dose: 10.0 mg/kg/injection, schedule: Q01DX001 (ip), vehicle: other) was 144 % of control and the T/C (dose: 10.0 mg/kg/injection, schedule: Q01DX001 (ip), vehicle: saline) was 125 % of control. For the same compound, the survivor count (dose: 10.0 mg/kg/injection, schedule: Q01DX009 (ip), vehicle: other) was 6 of 6, the survivor count (dose: 10.0 mg/kg/injection, schedule: Q01DX009 (ip), vehicle: saline) was 6 of 6 and the T/C (dose: 15.0 mg/kg/injection, schedule: Q01DX001 (ip), vehicle: saline) was 137 % of control. The T/C [10] was 137 % of control, the T/C (dose: 22.0 mg/kg/injection, schedule: Q01DX001 (ip), vehicle: saline) was 137 % of control and the survivor count [11] was 0 of 6. For the same compound, the survivor count [12] was 0 of 6, the survivor count [3] was 3 of 6 and the survivor count [13] was 1 of 6. For the same compound, the survivor count [14] was 4 of 6.
In the case of O=C(O)CCCCOc1ccc([N+](=O)[O-])cc1Cl, the survivor count [1] is reported as 0 of 6.
With O=C(O)c1ccc(C(=O)O)nn1 the survivor count (dose: 400.0 mg/kg/injection, schedule: Q04DX002 (ip), vehicle: saline) was 1 of 3.
With Fc1c(F)c(F)c(Oc2c(F)c(F)c(F)c(F)c2Oc2c(F)c(F)c(F)c(F)c2F)c(F)c1F the survivor count (dose: 37.5 mg/kg/injection, schedule: Q01DX009 (ip), vehicle: Klucel (hydroxypropylcellulose) (HPC)) was 1 of 6 and the survivor count (dose: 75.0 mg/kg/injection, schedule: Q01DX009 (ip), vehicle: Klucel (hydroxypropylcellulose) (HPC)) was 2 of 6.
COC(=O)C1=COC(C)C(C=O)C1CC(=O)O (centres undefined) was tested, and the survivor count (dose: 50.0 mg/kg/injection, schedule: Q01DX009 (ip), vehicle: saline) was 6 of 6, the T/C [8] was 125 % of control and the survivor count [7] was 3 of 6. The survivor count [9] was 0 of 6 and the survivor count [6] was 0 of 6.
For CC(=O)Nc1ccccc1SC(C)=O, the survivor count (dose: 200.0 mg/kg/injection, schedule: Q04DX003 (ip), vehicle: other) was 3 of 6 and the survivor count (dose: 400.0 mg/kg/injection, schedule: Q04DX003 (ip), vehicle: other) was 0 of 6.
In the case of c1cc[c]([Sn]([c]2ccccc2)([c]2ccccc2)[n]2ccnc2)cc1, the survivor count [10] is reported as 3 of 6, the survivor count [11] is reported as 1 of 6 and the survivor count [12] is reported as 0 of 6. The survivor count [3] was 0 of 6, the survivor count [13] was 1 of 6 and the survivor count [14] was 0 of 6.
In the case of c1ccc(CNCc2ccccc2)cc1, the survivor count [15] is reported as 0 of 6.
In the case of O=C(O)/C=C/c1ccc(Cl)cc1Cl, the survivor count (dose: 400.0 mg/kg/injection, schedule: Q01DX009 (ip), vehicle: saline with Tween-80) is reported as 3 of 6.
Cc1cc(=O)oc2cc(OC(=O)Nc3ccccc3)ccc12 was tested, and the survivor count (dose: 200.0 mg/kg/injection, schedule: Q01DX009 (ip), vehicle: Klucel (hydroxypropylcellulose) (HPC)) was 0 of 3, the survivor count [1] was 0 of 3 and 0 of 6 and the survivor count (dose: 400.0 mg/kg/injection, schedule: Q04DX002 (ip), vehicle: Klucel (hydroxypropylcellulose) (HPC)) was 1 of 3 and 4 of 6.
With Cc1c(CCl)c(C)c(CCl)c(C)c1CCl the survivor count (dose: 100.0 mg/kg/injection, schedule: Q01DX009 (ip), vehicle: Klucel (hydroxypropylcellulose) (HPC)) was 4 of 6, the survivor count (dose: 100.0 mg/kg/injection, schedule: Q04DX003 (ip), vehicle: Klucel (hydroxypropylcellulose) (HPC)) was 4 of 6 and the survivor count (dose: 200.0 mg/kg/injection, schedule: Q04DX003 (ip), vehicle: Klucel (hydroxypropylcellulose) (HPC)) was 5 of 6. For the same compound, the survivor count [15] was 4 of 6.
For CC(C)C(CN)(CCCCN1CCCC1)c1cccc2ccccc12 (centres undefined), the survivor count (dose: 100.0 mg/kg/injection, schedule: Q04DX003 (ip), vehicle: saline with Tween-80) was 3 of 6, the survivor count (dose: 200.0 mg/kg/injection, schedule: Q04DX003 (ip), vehicle: saline with Tween-80) was 0 of 6 and the survivor count [2] was 0 of 6.
With N#CC(=N)C(C#N)=Nc1c(O)[nH]c2ccccc12 the survivor count (dose: 100.0 mg/kg/injection, schedule: Q01DX009 (ip), vehicle: DMSO) was 0 of 6, the survivor count (dose: 200.0 mg/kg/injection, schedule: Q01DX001 (ip), vehicle: DMSO) was 0 of 6 and the survivor count (dose: 400.0 mg/kg/injection, schedule: Q01DX001 (ip), vehicle: DMSO) was 0 of 6.
